# From the supplement of paper PMC10689618
# Structures can show the parent of a compound that is named as a salt. This is one part of the list. Repeats are few or missing, and single values can be far off.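 Labelled rat cortical synaptosomes were engulfed by primary human fetal astrocytes. Engulfment equaled a red/green ratio, corrected for calcein live-cell signal and normalized to the plate median. Compounds were toxic when calcein dropped over 30%, and reduced phagocytosis when below 70% of the median above 5 µM.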
# What was measured:
# Conditions in all cases: 24 h
# Human fetal astrocytes [1] = assay: loss of total cells relative to no-compound high-control median (toxicity); higher = more toxic (fewer cells)
# Human fetal astrocytes [2] = assay: synaptosome phagocytosis (pHrodo/calcein intensity ratio) relative to plate median of data wells; higher = more phagocytosis
# Human fetal astrocytes [3] = assay: loss of total cells relative to no-compound high-control median (toxicity); higher = more toxic (fewer cells); remark: listed apart in the source
Structure (SMILES),loss of total cells (Human fetal astrocytes [1]; 22.22 µM),synaptosome phagocytosis (Human fetal astrocytes [2]; 22.22 µM),loss of total cells (Human fetal astrocytes [1]; 1.39 µM),loss of total cells (Human fetal astrocytes [1]; 2.78 µM),loss of total cells (Human fetal astrocytes [1]; 5.56 µM),loss of total cells (Human fetal astrocytes [1]; 11.11 µM),synaptosome phagocytosis (Human fetal astrocytes [2]; 1.39 µM),synaptosome phagocytosis (Human fetal astrocytes [2]; 2.78 µM),synaptosome phagocytosis (Human fetal astrocytes [2]; 5.56 µM),synaptosome phagocytosis (Human fetal astrocytes [2]; 11.11 µM),loss of total cells (Human fetal astrocytes [3]; 1.39 µM),loss of total cells (Human fetal astrocytes [3]; 2.78 µM),loss of total cells (Human fetal astrocytes [3]; 5.56 µM),loss of total cells (Human fetal astrocytes [3]; 11.11 µM),loss of total cells (Human fetal astrocytes [3]; 22.22 µM)
"C[N+]1(C)CCN(c2ccccc2)CC1 [1,1-Dimethyl-4-phenyl-piperazinium iodide]",4.8%,90.6%,,,,,,,,,,,,,
NCC1(CC(=O)O)CCCCC1 [Gabapentin],-4%,103%,8.8%,-10.3%,4.1%,-10.3%,117%,114%,99.3%,137%,,,,,
"O=[N+]([O-])c1ccc(O[C@@H]2O[C@H](CO)[C@@H](O)[C@H](O)[C@H]2F)c([N+](=O)[O-])c1 [2,4-Dinitrophenyl 2-fluoro-2-deoxy-beta-D-glucopyranoside]",-5.6%,120%,18%,-11.1%,-18.1%,-1.3%,102%,103%,112%,117%,,,,,
CN(C)C(=O)Oc1ccc[n+](C)c1 [Pyridostigmine bromide],-44.4%,102%,-28.9%,-23.7%,-7.9%,-18%,95.7%,109%,98.7%,86.4%,,,,,
Oc1ccc2c3c1O[C@H]1[C@@H](O)CC[C@@]4(O)[C@@H](C2)N(CC2CCC2)CC[C@]314 [Nalbuphine hydrochloride],11.2%,124%,7.1%,3.2%,2.3%,17.1%,122%,108%,74.4%,79.6%,,,,,
NC(N)=Nc1ccc2[nH]c3c(c2c1)C[C@@]1(O)[C@H]2Cc4ccc(O)c5c4[C@@]1(CCN2CC1CC1)[C@H]3O5 [Guanidinyl-naltrindole di-trifluoroacetate],1.6%,107%,0.4%,-8.5%,-2.5%,-24.7%,110%,86.1%,116%,95.2%,,,,,
"CC(N)c1cccc(Cl)c1Cl (racemic) [(±)-2,3-Dichloro-alpha-methylbenzylamine hydrochloride]",-8.8%,96%,7.9%,4.3%,-8.2%,-10.3%,92.3%,88.8%,108%,105%,,,,,
COc1cc(CC(C)N)c(OC)cc1I (racemic) [(±)-DOI hydrochloride],8.8%,103%,-20.5%,-35%,6.6%,4%,94.9%,115%,102%,103%,,,,,
Cc1[nH]c2ccc(O)cc2c1CCN [2-Methyl-5-hydroxytryptamine maleate],2.8%,141%,-0.5%,19.5%,5.2%,1.9%,97.6%,112%,111%,145%,,,,,
CCN1C[C@]2(C)CC[C@H](O)[C@]34C1[C@@H](C[C@H]23)[C@@]1(O)C[C@H](OC)[C@H]2C[C@@H]4[C@@H]1[C@H]2O [Karakoline],-3.7%,95.4%,-6.2%,3.2%,4.2%,-6.7%,86.7%,98.2%,121%,101%,,,,,
CC[C@@]1(O)C[C@H](O[C@H]2C[C@H](N(C)C)[C@H](O)[C@H](C)O2)c2c(cc3c(c2O)C(=O)c2c(O)ccc(O)c2C3=O)[C@H]1C(=O)OC,,,,,,,,,,,14.1%,10%,43.5%,8.4%,26.3%
CC[C@@]1(O)C[C@H](O)c2c(cc3c(c2O)C(=O)c2c(O)ccc(O)c2C3=O)[C@H]1C(=O)OC,,,,,,,,,,,-15.6%,8%,40.5%,-9%,7%
